Assay results published in patent US20230056252A1.
Residue numbers refer to the chain shown, from its start. Results are given in words; binding and its absence hold for the method and conditions named. Some results given as binding are weak or reduced against the parent protein; the word gives no strength.

Protein sequences, listed by entry. Tags and fused reporters are not part of them. Lines headed by an entry give the natural chain unless they say otherwise; changes in a name come on top.
UniProt P07766: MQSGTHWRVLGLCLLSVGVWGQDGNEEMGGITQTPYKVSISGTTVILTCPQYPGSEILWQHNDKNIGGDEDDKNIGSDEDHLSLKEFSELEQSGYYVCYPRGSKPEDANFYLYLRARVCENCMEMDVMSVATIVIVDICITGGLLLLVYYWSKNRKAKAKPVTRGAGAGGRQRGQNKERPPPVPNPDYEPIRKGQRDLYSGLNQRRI

B1: huSP34.2.1 Fab-HF (Fab, V domains shown)
VH: EVQLVESGGGLVQPGGSLRLSCAASGFTFSTYAMNWVRQAPGKGLEWVGRIRSKYNNYATYYAASVKGRFTISRDDSKNSLYLQMNSLKTEDTAMYYCVRHGNFGNSYVSWFAVWGQGTLVTVSS
VL: QAVVTQEPSLTVSPGGTVTLTCRSSTGAVTTSNYANWVQQKPGQAPRGLIGGTNKRAPWTPARFSGSLIGDKAALTLSGAQPEDEAEYYCALWYSNLWVFGGGTKLTVL
B2: huSP34.2.2 Fab-HF (Fab, V domains shown)
VH: B1 VH
VL: B1 VL with R23G, N54S, K55N, I69L, D71G
B3: huSP34.2.6 Fab-HF (Fab, V domains shown)
VH: B1 VH
VL: QAVVTQPPSLTVSPGGTVTLTCGSSTGAVTTGHYANWVQQKPGQAPRGLIGGTSNRAPGVPARFSGSLSGGKAALTISGAQPEDEAEYYCALWYSARWVFGGGTKLTVL
B4: huSP34.3.1 Fab-HF (Fab, V domains shown)
VH: B1 VH with S30N, A64D, K89R, M95V, N106H, V114Y
VL: B1 VL
B5: huSP34.3.2 Fab-HF (Fab, V domains shown)
VH: B1 VH with S30N, A64D, K89R, M95V, N106H, V114Y
VL: B1 VL with R23G, N54S, K55N, I69L, D71G
B6: huSP34.3.4 Fab-HF (Fab, V domains shown)
VH: B1 VH with S30N, A64D, K89R, M95V, N106H, V114Y
VL: B1 VL with R23G, N33H, N54S, I69L, D71G, N96A
B7: huSP34.3.5 Fab-HF (Fab, V domains shown)
VH: B1 VH with S30N, A64D, K89R, M95V, N106H, V114Y
VL: B3 VL with P7E, G59W, V60T, S69L, I77L
B8: huSP34.3.6 Fab-HF (Fab, V domains shown)
VH: B1 VH with S30N, A64D, K89R, M95V, N106H, V114Y
VL: B3 VL
B9: huSP34.4.1 Fab-HF (Fab, V domains shown)
VH: B1 VH with K89R, M95V, N106H
VL: B1 VL
B10: huSP34.4.6 Fab-HF (Fab, V domains shown)
VH: B1 VH with K89R, M95V, N106H
VL: B3 VL

Target: human CD3 on the surface of primary human T cells (CD4+ and CD8+ T cells, PBMCs) (human) (UniProt P07766)
Assay: flow cytometry competition with murine SP34-AF488 on primary human T cells

binding, binds:
B1, B2, B3, B4, B5, B6, B7, B8, B9, B10
